In article PMC4553633:
The exact form of at least one protein or probe is not confirmed. A weaker result is weaker than the reference pair of the same experiment.

Chains of the proteins cited; added tags and fusions are not shown. A line that says so, or that is headed by a name, gives the form on record, which may keep a tag or linker.
UniProt P27782, whole entry: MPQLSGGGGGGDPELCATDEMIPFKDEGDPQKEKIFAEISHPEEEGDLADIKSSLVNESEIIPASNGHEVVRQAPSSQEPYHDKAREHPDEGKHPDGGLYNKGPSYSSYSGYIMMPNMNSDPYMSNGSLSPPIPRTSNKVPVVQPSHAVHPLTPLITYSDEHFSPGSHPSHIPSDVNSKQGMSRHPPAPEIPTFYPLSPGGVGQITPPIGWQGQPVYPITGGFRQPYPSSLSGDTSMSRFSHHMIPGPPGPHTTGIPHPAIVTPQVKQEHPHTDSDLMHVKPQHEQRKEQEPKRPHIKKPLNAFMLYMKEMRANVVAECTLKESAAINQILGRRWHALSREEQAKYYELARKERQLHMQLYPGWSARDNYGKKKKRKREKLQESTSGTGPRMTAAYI
His-Lef1 (mLef1) + flag-β-catenin (hβ-catenin), one chain, as listed by the source, chain 2 of 2: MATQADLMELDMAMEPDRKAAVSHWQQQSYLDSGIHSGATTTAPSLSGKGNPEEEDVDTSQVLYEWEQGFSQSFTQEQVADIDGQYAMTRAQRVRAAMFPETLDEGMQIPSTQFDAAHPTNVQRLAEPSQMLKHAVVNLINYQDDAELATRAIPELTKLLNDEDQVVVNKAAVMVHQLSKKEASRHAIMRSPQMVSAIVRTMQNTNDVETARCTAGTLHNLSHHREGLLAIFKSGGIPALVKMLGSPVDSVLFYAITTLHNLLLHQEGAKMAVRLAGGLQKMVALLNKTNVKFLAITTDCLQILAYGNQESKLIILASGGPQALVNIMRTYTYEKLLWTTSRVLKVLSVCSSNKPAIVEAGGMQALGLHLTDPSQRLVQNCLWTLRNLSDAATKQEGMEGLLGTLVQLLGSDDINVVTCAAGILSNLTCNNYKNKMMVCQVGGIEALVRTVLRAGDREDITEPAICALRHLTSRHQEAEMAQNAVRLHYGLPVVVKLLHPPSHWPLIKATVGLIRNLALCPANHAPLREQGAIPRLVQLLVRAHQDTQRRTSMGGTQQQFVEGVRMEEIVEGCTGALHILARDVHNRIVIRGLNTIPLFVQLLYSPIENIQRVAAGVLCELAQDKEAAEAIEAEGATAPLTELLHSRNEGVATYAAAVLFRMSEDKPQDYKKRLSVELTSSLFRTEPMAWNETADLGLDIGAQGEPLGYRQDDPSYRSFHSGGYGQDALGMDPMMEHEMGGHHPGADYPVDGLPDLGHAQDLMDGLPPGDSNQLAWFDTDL
His-Lef1 (mLef1) + flag-β-catenin (hβ-catenin), one chain, as listed by the source, chain 1 of 2: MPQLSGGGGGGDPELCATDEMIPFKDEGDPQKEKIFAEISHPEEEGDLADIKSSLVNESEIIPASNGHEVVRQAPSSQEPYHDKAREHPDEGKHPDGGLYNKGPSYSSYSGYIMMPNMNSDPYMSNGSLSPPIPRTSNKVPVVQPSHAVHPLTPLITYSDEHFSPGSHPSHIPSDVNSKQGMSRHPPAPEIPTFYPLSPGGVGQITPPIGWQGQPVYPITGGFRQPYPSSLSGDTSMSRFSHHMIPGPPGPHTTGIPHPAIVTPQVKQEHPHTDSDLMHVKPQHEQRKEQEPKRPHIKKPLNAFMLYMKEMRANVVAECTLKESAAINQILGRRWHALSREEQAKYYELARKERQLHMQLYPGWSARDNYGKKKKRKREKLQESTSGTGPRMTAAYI

Legend:
[1] = target: His-Lef1 (mLef1) (Mus musculus) (UniProt P27782); experiment: EMSA; conditions: EMSA essentially as Forman et al. 1992 and Shtutman et al. 1999; pH and temperature not stated; protein translated in vitro; protein details: N-terminal His
[2] = target: His-Lef1 (mLef1) (Mus musculus) (UniProt P27782); experiment: competition with a labelled probe; conditions: unlabeled N4 10-50x vs labeled N3; EMSA essentially as Forman et al. 1992 and Shtutman et al. 1999; pH and temperature not stated; protein translated in vitro; protein details: N-terminal His
[3] = tested on: His-Lef1 (mLef1) + flag-β-catenin (hβ-catenin); experiment: competition with a labelled probe; conditions: unlabeled N4 10-50x vs labeled N3; EMSA essentially as Forman et al. 1992 and Shtutman et al. 1999; pH and temperature not stated; protein translated in vitro; protein details: N-terminal His,flag

Measured: binding result

TTGACCCTCCTCACATCTTTCTTAG (double strand) [Tcf/Lef mut]
binds more weakly: all assays above
